One molecule from paper PMC9352551 can be followed below.

Results are given in words; binding and its absence hold for the method and conditions named. Some binding calls cover weakened binding; strength is not graded here. Where a sequence is shown, tags or fusion partners need not be part of it.

The test has as its target T1, his-Par-6 (Drosophila) (UniProt O97111).
T1 sequence: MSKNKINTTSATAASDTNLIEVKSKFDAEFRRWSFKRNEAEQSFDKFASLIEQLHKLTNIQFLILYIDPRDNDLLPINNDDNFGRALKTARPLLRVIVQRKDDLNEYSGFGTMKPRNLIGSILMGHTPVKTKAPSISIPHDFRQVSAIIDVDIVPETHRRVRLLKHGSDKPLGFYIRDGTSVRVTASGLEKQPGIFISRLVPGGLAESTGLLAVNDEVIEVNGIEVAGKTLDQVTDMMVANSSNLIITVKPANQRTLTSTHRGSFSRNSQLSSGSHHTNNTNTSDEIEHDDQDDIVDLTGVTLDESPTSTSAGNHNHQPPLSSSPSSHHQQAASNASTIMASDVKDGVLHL
In words: co-purification (his-tag affinity resin, then anion exchange); his-Par-6 and untagged aPKC co-expressed in 293F cells; lysate on HisPur Ni-NTA or cobalt resin, then Source Q with a gradient of 100 to 550 mM NaCl.

B1: aPKC (enzyme, UniProt A1Z9X0 1-606)
chain: MQKMPSQILNDGSSVSLNSASMNMANTPNSITVKTAYNGQIIITTINKNISYEELCYEIRNICRFPLDQPFTIKWVDEENDPCTISTKMELDEAIRLYEMNFDSQLVIHVFPNVPQAPGLSCDGEDRSIYRRGARRWRKLYRVNGHIFQAKRFNRRAFCAYCQDRIWGLGRQGFKCIQCKLLVHKKCHKLVQKHCTDQPEPLVKERAEESSDPIPVPLPPLPYEAMSGGAEACETHDHAHIVAPPPPEDPLEPGTQRQYSLNDFELIRVIGRGSYAKVLMVELRRTRRIYAMKVIKKALVTDDEDIDWVQTEKHVFETASNHPFLVGLHSCFQTPSRLFFVIEFVRGGDLMYHMQRQRRLPEEHARFYAAEISLALNFLHEKGIIYRDLKLDNVLLDHEGHIKLTDYGMCKEGIRPGDTTSTFCGTPNYIAPEILRGEDYGFSVDWWALGVLLYEMLAGRSPFDLAGASENPDQNTEDYLFQVILEKTIRIPRSLSVRAASVLKGFLNKNPADRLGCHRESAFMDIVSHPFFKNMDWELLERKQVTPPFKPRLDSDRDLANFPPEFTGEAVQLTPDDDHVIDNIDQSEFEGFEYVNPLLMSLEDCV
Regarding B1, the binding entry is “binds”.
